Test results: patent US20260083859A1, “SUSTAINED TRANSGENE EXPRESSION OF MODIFIED ERT2 PEPTIDE-SUICIDE PROTEIN FUSION POLYPEPTIDES” (Senti Biosciences, Inc., priority 2023, published 2026)
For at least one compound, name, drawing or mass did not settle the structure.

Columns and labels:
[1] = tested on: PSC-derived microglial precursor cells or myeloid progenitor cells; test: Apoptosis in PSC-derived microglial precursor cells or myeloid progenitor cells (Example 8); type: cell-based; conditions: cells from PSCs engineered with Table 3 constructs; 1, 5, 50 or 100 nM 4-OHT, or 5, 10, 50 or 100 nM Endoxifen
Protocol: To validate conservation of kill switch function after PSCs are differentiated to precursor cells or myeloid progenitor cells, PSCs engineered to incorporate the modified ERT2 peptide-suicide protein fusion polypeptide constructs outlined in Table 3 were differentiated into microglial precursor cells or myeloid progenitor cells. Thereafter PSC-derived microglial precursor cells or myeloid progenitor cells are treated with Endoxifen, 4-OHT or media alone and tested for incorporation of the modified ERT2 peptide-suicide protein fusion polypeptide in the STEL site.
To test function of the modified ERT2 peptide-suicide protein fusion polypeptide constructs in PSC-derived microglial precursor cells or myeloid progenitor cells, cells are cultured, then treated with either lnM, 5 nM, 50 nM, or 100 nM 4-OHT, or 5 nM, 10 nM, 50 nM, or 100 nM Endoxifen, before assessment of apoptosis.

[2] = tested on: PSC-derived dopaminergic neurons; test: Apoptosis in PSC-derived dopaminergic neurons (Example 9); type: cell-based; conditions: neurons from PSCs engineered with Table 3 constructs; 1, 5, 50 or 100 nM 4-OHT, or 5, 10, 50 or 100 nM Endoxifen
Protocol: To validate conservation of kill switch function after PSCs are differentiated to dopaminergic neurons, PSCs engineered to incorporate the modified ERT2 peptide-suicide protein fusion constructs outlined in Table 3 are differentiated into dopaminergic neurons. Thereafter PSC-derived dopaminergic neurons are treated with Endoxifen, 4-OHT or media alone and tested for incorporation of the modified ERT2 peptide-suicide protein fusion polypeptide construct in the STEL site.
To test function of the modified ERT2 peptide-suicide protein fusion polypeptides in PSC-derived dopaminergic neurons, dopaminergic neurons are cultured, then treated with either lnM, 5 nM, 50 nM, or 100 nM 4-OHT; or 5 nM, 10 nM, 50 nM, or 100 nM Endoxifen, before assessment of apoptosis.

CC/C(=C(\c1ccc(O)cc1)c1ccc(OCCNC)cc1)c1ccccc1 [Endoxifen, endoxifen] was tested, and the apoptosis [1] was “resulted in apoptosis” and the apoptosis [2] was “resulted in apoptosis”.
